Measurements taken from PMC6505963.
No constants are given. Whether binding was seen depends on the method and setting.

By UniProt entry, the sequences of proteins in these tests, tags left out. Where a name states a change or a piece, a line headed by the entry shows the natural chain unless it says otherwise. Chains listed by the source or under a name are the forms on record and can include a tag or linker.
human BLM RQC domain (a.a. 1068–1209) (P54132, form named): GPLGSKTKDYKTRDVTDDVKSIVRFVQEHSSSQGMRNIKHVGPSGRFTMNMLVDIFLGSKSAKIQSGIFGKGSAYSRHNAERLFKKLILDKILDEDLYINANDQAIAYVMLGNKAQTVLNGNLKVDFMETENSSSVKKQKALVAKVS

How the values were obtained:
[1] = target: human BLM RQC domain (a.a. 1068–1209) (human) (UniProt P54132); assay: AUC; sedimentation equilibrium, 20°C, 10 mM Tris-HCl (pH 7.5), 0.1 M NaCl, 34, 67 and 200 μM protein, 29,000 rpm, single-species model; both purified
[2] = target: human BLM RQC domain (a.a. 1068–1209) (human) (UniProt P54132); assay: AUC; sedimentation velocity, 20°C, 10 mM Tris-HCl (pH 7.5), 0.1 M NaCl, ~70 μM protein, 40,000 rpm; both purified

binding [1]: no binding (tested: 34, 67 and 200 μM)
binding [2]: no binding (tested: ~70 μM)
Substance: human BLM RQC domain (a.a. 1068–1209) (from UniProt P54132 1068-1209) (domain or fragment)
